# Screening data

By UniProt entry, the sequences of proteins in these tests, tags left out.
UniProt P04062, whole entry, target on record: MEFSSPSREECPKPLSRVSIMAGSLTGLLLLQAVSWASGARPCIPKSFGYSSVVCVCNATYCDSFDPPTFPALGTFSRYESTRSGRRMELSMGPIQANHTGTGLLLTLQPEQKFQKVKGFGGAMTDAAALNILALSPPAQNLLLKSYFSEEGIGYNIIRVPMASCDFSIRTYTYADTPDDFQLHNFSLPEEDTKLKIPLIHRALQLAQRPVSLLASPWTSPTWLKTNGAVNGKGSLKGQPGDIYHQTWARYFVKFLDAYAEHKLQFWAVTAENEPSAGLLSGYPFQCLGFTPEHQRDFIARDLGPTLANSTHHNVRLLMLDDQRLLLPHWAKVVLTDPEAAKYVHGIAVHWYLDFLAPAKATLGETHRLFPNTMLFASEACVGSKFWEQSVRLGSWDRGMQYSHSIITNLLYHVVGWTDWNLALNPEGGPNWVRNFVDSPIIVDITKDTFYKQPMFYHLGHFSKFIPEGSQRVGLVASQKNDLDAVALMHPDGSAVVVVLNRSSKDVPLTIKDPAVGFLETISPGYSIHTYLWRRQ

The results are deposited in PubChem (AID360; NCATS, 2006).

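Purified human glucocerebrosidase was tested for inhibition by reading red fluorescence from a resorufin glucoside substrate after 20 minutes at room temperature.
Each compound was run as a titration series spanning about 0.6 nM up to 50 µM final.
The number is the fitted half-maximal concentration (AC50); a lower value means a more potent inhibitor.
The record treats a '>' qualifier as no measurable activity (inactive); no explicit numeric cut-off is stated.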

Values are in nM.
All entries here are filed as inactive.
These are entries filed as inactive; the hits of the assay are not listed here.

SMILES,potency (nM)
Cc1cc(NC(=O)Nc2ccccc2)n(-c2ccccc2)n1,>76900
CCCC(NC(=O)CNC(=O)C(C)(C)C)C(=O)O (centres unmarked),>76900
CN(C/C(O)=C(\C#N)c1ccccc1)C1CCCCC1,>76900
CN1CCN(C(=O)C2CC(c3c(F)cccc3Cl)=NO2)CC1 (centres unmarked),>76900
COc1cc2sc(C)nc2c2sccc12,>76900
CCn1cc(C(=O)Nc2cccc(C(=O)OC)c2)c(=O)c2ccc(C)nc21,>76900
O=C(NCc1ccccn1)c1cn(Cc2ccccc2)nn1,>76900
Cc1ccnc(NS(=O)(=O)c2ccc(N=CC3=C(O)CC(C)(C)CC3=O)cc2)n1,>76900
CC(C)(C)Nc1nc(Oc2ccc(=O)n(-c3ccccc3)n2)nc(N2CCOCC2)n1,>76900
Cn1c(SCC(=O)NCc2ccccc2)nnc1C1CC1,>76900
O=C(c1ccco1)N1CCN(S(=O)(=O)N2CCOCC2)CC1,>76900
CC(C)CCOC(=O)C1[C@H]2C(=O)N(Cc3cccs3)C[C@]23C=C[C@H]1O3 (some centres unmarked),>76900
CC1(C)Cc2c(sc(NC(=O)c3ccco3)c2C#N)C(C)(C)N1,>76900
COCCNC(=O)CSCc1c(F)cccc1Cl,>76900
Cc1ccc(S(=O)(=O)N2CCN(C(=O)CCC(=O)N3CCc4ccccc43)CC2)cc1,>76900
CCOc1ccc(-n2cc(C(=O)NCc3ccco3)c3cc(OC)c(OC)cc3c2=O)cc1,>76900
CCOc1ccc(-n2c(SCC(=O)Nc3ccc4c(c3)OCCO4)nc3c(c2=O)SCC3)cc1,>76900
CC(C)c1nnc(NC(=O)CC(=O)Nc2ccccc2C(=O)O)s1,>76900
COn1c(C)c(C(C)=O)c2c3nonc3ccc21,>76900
COc1ccc(N2CCN(C(=O)CSc3ncnc4c3cnn4-c3ccc(OC)cc3)CC2)cc1,>76900
N#Cc1ccccc1Cn1c(=O)n(CCC(=O)NCc2ccco2)c(=O)c2ccccc21,>76900
C=CCn1c(Cc2ccc(OCC)cc2)nnc1SCC(N)=O,>76900
COC(=O)c1c(NC(=O)CN2CCN(C(=O)c3ccco3)CC2)c2cc(C)ccc2n1C,>76900
CCCOC(=O)c1ccc(NC(=O)c2cnccn2)cc1,>76900
O=C1OC(N2CCN(C(=O)c3ccco3)CC2)c2ccccc21 (centres unmarked),>76900
O=C(NC1CCCC1)C1CC(=O)N(CCc2ccccc2)C1 (centres unmarked),>76900
Cc1onc(-c2ccccc2)c1C(=O)Nc1ccc(-c2nnc3n2CCCCC3)cc1,46100
COc1ccc(C2C(C(C)=O)=C(O)C(=O)N2CCc2ccccc2)c(OC)c1 (centres unmarked),>76900
Cc1ccc2nc(C3CCN(C(=O)c4ccco4)CC3)[nH]c2c1,>76900
COc1cc(Br)cc2cc(C(=O)N3CCCCC3C)c(=O)oc12 (centres unmarked),>76900
CC1CCCN(C(=O)CSc2nnc(-c3c[nH]c4ccccc34)o2)C1 (centres unmarked),>76900
Cc1ccc2c(CSc3nncs3)cc(=O)oc2c1,>76900
CN1CCCN(CC(O)COCc2cccs2)CC1 (centres unmarked),>76900
COc1cc2c(cc1OC)C(c1ccsc1)CC(=O)N2 (centres unmarked),>76900
CCC(C)Sc1nnc(-c2c[nH]c3ccccc23)n1CCOC (centres unmarked),>76900
COC(=O)c1ccccc1NC(=O)Nc1cccs1,>76900
Cn1c(=O)[nH]c(=O)c2[nH]c(NCCCN3CCOCC3)nc21,>76900
O=C(NCc1ccc2c(c1)OCO2)C1CCCN1C(=O)Nc1cccc(F)c1 (centres unmarked),>76900
COC(=O)C(NC(=O)C(NC(=O)c1ccccc1)C(C)C)C(C)C (centres unmarked),>76900
COc1ccc(Cn2nc(C)cc2C)cc1OC,>76900
Cn1nnc2cc(C(=O)NCc3ccco3)ccc21,>76900
O=C(Nc1ccccc1C(=O)NC1CCCC1)NC1CCCC1,>76900
CCOC(=O)C1=C(C)Nc2ncnn2C1/C=C/c1ccccc1 (centres unmarked),>76900
CCn1c2ccccc2c2cc(NC(=O)CSc3nnnn3-c3ccccc3)ccc21,>76900
Clc1c(CSc2nc3ccccc3o2)nc2ccccn12,>76900
O=C(NCc1n[nH]c(=S)n1-c1ccccc1)c1ccc(S(=O)(=O)N2CCOCC2)cc1,>76900
COc1cc(S(=O)(=O)Nc2cccnc2)ccc1F,>76900
COCCOC(=O)C1=C(C)Nc2ncnn2C1c1ccccc1 (centres unmarked),>76900
C/C(N)=C(/C#N)C(=O)COC(=O)C1Cc2ccccc2CN1S(C)(=O)=O (centres unmarked),>76900
CCCC(=O)Nc1cccc(NC(=O)CN2CCN(c3ccccc3OC)CC2)c1,>76900
CCCS(=O)(=O)N1CCCC(C(=O)NCCN(C)Cc2ccccc2)C1 (centres unmarked),>76900
O=C(c1ccc(Cn2cc(Cl)cn2)cc1)N1CCN(c2ccccc2)CC1,>76900
Cc1ccc(S(=O)(=O)NC(C)C(=O)Nc2ccccc2C(=O)N2CCCC2)cc1 (centres unmarked),>76900
O=C(CC1C(=O)NCCN1C(=O)c1ccc(F)cc1)OCc1ccccc1 (centres unmarked),>76900
Cc1cc(-c2csc(N)n2)c(C)n1CCc1ccccc1,40199
CCCn1nnnc1SCC(=O)N1CCOCC1,>76900
C=CCc1cccc2cc(NC(C)=O)c(=O)oc12,>76900
CC(=O)Oc1c(C)cc(O)c2ccccc12,>76900
CCn1c(SCC(=O)Nc2ccc(OCc3ccccc3)cc2)nnc1-c1ccco1,>76900
CC1=C(C)CS(=O)N(S(=O)(=O)c2ccc(Cl)cc2)C1 (centres unmarked),>76900
Cc1ccc(OCc2nnc(SCC(=O)C(C)(C)C)n2Cc2ccco2)cc1,>76900
CCOC(=O)CCCNC(=O)CN1C(=O)NC(CCc2ccccc2)C1=O (centres unmarked),>76900
COc1cc2nc(-c3ccc(Br)o3)oc(=O)c2cc1OC,>76900
O=C(O)CC(C(=O)OC1CCCCC1)N1CCOCC1 (centres unmarked),>76900
CC1CN(CC(=O)N2CCc3[nH]c4ccccc4c3C2)CC(C)O1 (centres unmarked),>76900
COC(=O)c1ccc(NCC(=O)c2ccccc2)cc1,>76900
CC(=O)NC(C(=O)NCC(N)=O)C(C)C (centres unmarked),>76900